Measurements as given in paper PMC6868145.
These are yes or no findings as the source states them, for the method shown. Binding seen in cells or lysates may run through a third protein. Some entries that bind do so weakly or less than the wild type.

Sequences of proteins named here, by UniProt entry; tags and fusion partners are left off. A change or cut given only in a name is not applied to a line headed by its entry. A line that says so, or that is headed by a name, gives the form on record, which may keep a tag or linker.
PAK1-full (full-length PAK1), tagged with eGFP or mCherry (Q13153-2, form named): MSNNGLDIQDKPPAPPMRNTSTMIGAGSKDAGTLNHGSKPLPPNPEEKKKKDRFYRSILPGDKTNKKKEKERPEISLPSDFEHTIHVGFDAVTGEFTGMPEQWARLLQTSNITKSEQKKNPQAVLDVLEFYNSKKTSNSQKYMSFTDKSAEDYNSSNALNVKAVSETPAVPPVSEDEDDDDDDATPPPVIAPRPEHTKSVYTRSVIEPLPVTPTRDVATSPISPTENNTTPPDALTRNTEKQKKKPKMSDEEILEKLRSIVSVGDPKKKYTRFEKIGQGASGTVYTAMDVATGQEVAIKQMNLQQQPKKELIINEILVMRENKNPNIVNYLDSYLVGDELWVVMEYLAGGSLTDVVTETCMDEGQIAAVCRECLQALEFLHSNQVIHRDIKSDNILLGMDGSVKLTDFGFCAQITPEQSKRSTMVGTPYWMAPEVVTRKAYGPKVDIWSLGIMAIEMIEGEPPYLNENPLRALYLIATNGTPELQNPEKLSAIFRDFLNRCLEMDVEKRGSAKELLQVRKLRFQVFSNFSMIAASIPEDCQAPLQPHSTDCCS
UniProt Q13177: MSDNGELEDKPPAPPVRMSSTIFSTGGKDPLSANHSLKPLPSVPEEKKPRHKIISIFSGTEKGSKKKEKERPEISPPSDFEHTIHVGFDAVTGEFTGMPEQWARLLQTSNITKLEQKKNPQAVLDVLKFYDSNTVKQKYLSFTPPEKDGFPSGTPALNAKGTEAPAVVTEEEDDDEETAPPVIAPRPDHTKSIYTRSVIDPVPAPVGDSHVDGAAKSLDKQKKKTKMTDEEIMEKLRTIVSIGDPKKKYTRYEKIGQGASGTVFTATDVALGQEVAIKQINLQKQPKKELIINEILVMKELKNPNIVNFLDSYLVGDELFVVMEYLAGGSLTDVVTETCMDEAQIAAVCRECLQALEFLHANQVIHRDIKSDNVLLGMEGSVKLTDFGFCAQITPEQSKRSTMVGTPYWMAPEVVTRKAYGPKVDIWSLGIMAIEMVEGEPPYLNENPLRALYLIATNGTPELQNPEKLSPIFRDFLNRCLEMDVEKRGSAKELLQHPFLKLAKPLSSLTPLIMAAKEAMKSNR

Tests used:
[1] = molecular target: PAK1-full (full-length PAK1), tagged with eGFP or mCherry (human) (UniProt Q13153); experiment: co-IP; HEK293T cells co-transfected with eGFP- and mCherry-tagged PAK isoforms; GFP- or RFP-Trap nanobody beads, 1 h at 4 °C; lysis buffer 10 mM Tris/Cl pH 7.5, 150 mM NaCl, 0.5 mM EDTA, 0.5% NP-40; co-precipitate detected through the complementary label (anti-RFP or anti-GFP blot); PAK1-full with PAK2 also tested with inverse labelling and after Q-VD-OPh pretreatment
[2] = molecular target: PAK2, tagged with eGFP or mCherry (human) (UniProt Q13177); experiment: as above

binding [1]	binding [2]	Substance
binds		PAK1-full (full-length PAK1), tagged with eGFP or mCherry (from UniProt Q13153-2 1-553) (enzyme)
binds	binds	PAK2, tagged with eGFP or mCherry (from UniProt Q13177 1-524) (enzyme)
